Consider two molecules from paper PMC7999107.

Chains of the proteins cited; added tags and fusions are not shown. Lines headed by an entry give the natural chain unless they say otherwise; changes in a name come on top.
UniProt B2RWS6: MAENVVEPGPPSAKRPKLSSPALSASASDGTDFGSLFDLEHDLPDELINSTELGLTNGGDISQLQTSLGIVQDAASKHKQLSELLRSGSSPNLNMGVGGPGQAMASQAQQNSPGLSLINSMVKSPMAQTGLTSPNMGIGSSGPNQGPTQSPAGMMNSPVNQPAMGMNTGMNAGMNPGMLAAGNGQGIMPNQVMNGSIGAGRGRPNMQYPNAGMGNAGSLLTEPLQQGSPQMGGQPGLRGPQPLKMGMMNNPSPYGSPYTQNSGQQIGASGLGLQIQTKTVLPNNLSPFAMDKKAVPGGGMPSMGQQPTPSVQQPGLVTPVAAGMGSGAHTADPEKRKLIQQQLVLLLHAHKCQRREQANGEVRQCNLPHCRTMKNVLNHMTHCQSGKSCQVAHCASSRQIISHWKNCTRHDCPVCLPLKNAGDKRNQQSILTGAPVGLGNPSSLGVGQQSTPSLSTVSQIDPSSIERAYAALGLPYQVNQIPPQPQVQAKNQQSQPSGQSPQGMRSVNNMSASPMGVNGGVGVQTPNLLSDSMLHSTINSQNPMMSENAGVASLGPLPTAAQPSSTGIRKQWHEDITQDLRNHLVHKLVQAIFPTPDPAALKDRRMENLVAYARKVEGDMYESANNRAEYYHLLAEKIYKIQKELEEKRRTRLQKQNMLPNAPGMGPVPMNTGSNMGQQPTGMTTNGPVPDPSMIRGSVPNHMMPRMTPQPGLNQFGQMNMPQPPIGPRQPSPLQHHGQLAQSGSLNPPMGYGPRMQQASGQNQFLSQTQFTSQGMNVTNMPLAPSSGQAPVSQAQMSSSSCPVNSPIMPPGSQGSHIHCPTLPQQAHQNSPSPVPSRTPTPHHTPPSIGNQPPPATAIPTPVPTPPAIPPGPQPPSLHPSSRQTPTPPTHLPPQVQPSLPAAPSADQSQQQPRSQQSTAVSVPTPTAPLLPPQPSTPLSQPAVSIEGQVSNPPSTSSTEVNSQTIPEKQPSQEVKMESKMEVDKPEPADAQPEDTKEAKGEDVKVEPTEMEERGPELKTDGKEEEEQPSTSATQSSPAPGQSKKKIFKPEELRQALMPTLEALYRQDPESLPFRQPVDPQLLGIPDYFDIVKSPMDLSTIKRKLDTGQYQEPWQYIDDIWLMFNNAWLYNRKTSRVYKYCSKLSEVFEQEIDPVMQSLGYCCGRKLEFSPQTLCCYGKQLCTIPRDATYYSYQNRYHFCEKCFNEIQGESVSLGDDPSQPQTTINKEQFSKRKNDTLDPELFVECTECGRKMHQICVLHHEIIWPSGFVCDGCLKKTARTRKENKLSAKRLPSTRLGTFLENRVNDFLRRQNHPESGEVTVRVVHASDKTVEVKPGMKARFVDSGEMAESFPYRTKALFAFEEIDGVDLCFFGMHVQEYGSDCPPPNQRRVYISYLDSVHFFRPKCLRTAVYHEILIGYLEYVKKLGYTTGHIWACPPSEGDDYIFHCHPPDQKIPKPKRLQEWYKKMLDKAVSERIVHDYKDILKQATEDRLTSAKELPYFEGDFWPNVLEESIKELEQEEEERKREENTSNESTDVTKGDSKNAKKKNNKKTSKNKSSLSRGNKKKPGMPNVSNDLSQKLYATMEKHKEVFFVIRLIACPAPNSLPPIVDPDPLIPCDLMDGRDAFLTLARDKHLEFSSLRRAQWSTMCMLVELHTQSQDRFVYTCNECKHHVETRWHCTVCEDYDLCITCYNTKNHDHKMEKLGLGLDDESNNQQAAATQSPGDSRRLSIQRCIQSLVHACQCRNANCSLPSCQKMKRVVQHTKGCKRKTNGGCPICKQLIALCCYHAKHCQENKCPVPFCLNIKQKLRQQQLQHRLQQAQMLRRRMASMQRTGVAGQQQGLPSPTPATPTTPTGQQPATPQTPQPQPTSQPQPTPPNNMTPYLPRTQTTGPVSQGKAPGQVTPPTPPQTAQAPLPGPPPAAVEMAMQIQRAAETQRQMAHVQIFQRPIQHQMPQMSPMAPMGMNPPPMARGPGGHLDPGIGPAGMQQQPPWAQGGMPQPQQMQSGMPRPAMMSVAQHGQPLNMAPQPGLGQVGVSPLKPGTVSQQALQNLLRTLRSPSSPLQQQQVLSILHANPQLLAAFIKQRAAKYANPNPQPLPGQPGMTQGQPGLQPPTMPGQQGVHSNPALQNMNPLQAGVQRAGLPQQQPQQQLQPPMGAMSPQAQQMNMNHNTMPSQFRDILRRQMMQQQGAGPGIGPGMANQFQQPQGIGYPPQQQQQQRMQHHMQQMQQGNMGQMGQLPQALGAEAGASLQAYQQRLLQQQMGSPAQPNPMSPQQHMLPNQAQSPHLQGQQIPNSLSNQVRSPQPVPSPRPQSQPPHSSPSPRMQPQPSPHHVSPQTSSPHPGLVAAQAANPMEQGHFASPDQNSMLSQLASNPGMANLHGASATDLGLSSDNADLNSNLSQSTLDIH
UniProt P45481: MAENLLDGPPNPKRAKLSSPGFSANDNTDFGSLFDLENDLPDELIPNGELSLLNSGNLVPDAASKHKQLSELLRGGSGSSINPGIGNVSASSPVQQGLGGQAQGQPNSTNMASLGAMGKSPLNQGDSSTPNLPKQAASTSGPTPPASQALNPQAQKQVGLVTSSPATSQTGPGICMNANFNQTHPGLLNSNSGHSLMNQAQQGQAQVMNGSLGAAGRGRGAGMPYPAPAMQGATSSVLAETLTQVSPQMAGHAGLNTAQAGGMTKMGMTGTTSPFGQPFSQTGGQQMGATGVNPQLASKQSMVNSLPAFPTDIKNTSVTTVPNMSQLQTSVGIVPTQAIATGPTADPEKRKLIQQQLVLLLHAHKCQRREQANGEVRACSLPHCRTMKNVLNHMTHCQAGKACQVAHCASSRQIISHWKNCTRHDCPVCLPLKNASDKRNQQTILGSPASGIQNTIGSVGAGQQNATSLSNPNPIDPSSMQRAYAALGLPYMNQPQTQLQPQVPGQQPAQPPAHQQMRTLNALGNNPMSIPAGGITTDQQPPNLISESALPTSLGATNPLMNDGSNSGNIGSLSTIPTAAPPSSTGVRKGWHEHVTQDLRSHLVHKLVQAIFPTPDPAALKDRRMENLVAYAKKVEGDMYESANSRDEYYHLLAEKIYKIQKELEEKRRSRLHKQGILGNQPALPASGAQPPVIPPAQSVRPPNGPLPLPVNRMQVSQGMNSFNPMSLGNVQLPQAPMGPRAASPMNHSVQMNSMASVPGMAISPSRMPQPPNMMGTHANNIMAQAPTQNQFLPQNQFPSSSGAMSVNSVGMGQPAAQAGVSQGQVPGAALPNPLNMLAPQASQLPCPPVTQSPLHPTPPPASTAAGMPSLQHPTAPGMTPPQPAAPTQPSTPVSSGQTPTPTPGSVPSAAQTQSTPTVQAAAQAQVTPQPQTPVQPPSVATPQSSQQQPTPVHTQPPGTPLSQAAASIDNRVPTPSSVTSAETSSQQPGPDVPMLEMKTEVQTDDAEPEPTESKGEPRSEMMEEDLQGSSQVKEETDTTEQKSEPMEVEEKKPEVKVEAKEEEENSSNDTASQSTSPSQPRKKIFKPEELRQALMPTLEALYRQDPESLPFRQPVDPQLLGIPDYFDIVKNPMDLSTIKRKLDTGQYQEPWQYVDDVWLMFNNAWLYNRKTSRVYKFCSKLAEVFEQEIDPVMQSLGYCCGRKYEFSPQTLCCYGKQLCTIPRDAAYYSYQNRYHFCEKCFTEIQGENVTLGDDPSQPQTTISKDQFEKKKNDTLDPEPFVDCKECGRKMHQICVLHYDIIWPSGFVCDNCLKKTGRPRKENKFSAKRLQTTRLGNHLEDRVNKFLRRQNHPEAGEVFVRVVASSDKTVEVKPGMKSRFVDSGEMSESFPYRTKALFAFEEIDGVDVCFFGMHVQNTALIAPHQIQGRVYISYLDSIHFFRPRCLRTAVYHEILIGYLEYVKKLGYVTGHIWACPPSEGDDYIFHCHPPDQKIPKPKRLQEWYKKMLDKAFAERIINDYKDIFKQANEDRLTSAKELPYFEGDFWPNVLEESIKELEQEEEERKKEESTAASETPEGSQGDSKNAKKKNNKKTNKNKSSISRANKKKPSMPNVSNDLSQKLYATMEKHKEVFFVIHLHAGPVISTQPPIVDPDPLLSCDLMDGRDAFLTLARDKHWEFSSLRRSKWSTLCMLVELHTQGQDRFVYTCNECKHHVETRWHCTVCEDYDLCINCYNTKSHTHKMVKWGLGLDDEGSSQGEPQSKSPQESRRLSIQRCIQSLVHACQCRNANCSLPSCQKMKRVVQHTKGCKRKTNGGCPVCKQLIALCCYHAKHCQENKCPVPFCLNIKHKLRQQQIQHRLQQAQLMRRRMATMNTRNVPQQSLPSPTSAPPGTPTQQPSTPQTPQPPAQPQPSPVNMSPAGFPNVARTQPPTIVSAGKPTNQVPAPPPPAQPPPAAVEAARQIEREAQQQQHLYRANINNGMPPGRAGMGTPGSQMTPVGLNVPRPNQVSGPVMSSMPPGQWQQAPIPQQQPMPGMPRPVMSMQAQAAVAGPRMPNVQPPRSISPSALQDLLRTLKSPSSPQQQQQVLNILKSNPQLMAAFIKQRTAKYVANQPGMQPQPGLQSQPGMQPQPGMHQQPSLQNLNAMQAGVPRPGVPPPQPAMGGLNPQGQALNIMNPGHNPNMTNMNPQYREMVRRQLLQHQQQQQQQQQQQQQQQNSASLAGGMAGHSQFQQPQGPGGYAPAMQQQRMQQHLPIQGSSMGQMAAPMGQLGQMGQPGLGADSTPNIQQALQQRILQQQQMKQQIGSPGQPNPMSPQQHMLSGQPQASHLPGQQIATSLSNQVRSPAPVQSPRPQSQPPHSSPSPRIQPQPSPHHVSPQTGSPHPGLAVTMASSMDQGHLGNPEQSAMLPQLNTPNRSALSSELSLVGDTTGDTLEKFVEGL
UniProt Q8C3P7: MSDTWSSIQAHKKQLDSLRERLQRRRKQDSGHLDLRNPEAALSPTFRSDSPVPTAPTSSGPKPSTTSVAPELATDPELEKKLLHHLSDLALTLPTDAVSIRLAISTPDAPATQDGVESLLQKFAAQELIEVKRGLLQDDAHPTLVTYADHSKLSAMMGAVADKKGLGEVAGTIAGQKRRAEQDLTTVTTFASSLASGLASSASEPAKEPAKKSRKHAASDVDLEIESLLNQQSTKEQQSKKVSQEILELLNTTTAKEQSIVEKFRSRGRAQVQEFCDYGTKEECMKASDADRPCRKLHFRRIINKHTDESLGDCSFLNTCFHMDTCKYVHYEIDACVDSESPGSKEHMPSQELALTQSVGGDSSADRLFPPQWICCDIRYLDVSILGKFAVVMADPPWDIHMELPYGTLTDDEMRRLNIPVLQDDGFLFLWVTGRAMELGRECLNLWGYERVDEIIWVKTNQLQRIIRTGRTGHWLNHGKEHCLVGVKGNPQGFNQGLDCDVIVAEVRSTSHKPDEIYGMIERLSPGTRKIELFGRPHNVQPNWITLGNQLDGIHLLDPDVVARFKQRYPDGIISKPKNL

Common to all, as to assay: affinity purification with mass spectrometry; targeted proteomic analysis of intestinal proteins associated with CBP and/or p300 (co-IP of CBP vs. p300) in WT versus p300 S89A mice, male and female, fed or fasted
Experiment [1] deals with p300 S89A (knock-in point mutant of mouse p300) (mouse (endogenous in intestinal crypt cells)) (UniProt B2RWS6).
Substrate in experiment [2]: CBP (Kat3A/CREBBP, cAMP response element binding protein (CREB)-binding protein) (mouse (endogenous in intestinal crypt cells)) (UniProt P45481)
In experiment [3] the target is p300 (Kat3B/E1A-binding protein, 300 kDa), wild type mouse (mouse (endogenous in intestinal crypt cells)) (UniProt B2RWS6).

These are yes or no findings as the source states them, for the method shown. Binding seen in cells or lysates may run through a third protein. Here binding means that the protein was enriched with, or labelled near, the bait; the list need not be complete.

Turning to “N6 methyl adenosine 70 kDa subunit Mettl3 (from UniProt Q8C3P7 1-580)”, in experiment [1], the binding result is given as “binds”.

B1: aryl hydrocarbon receptor nuclear translocator-like protein 2 (Bmal2) (protein, UniProt Q2VPD4 1-579)
chain: MEFPRKRRGRDSQPLQSEFMTDTTVESLPQNPFASLLSTRTGVSAPSGIREAHSQMEKRRRDKMNHLIQKLSSMIPPHIPTAHKLDKLSVLRRAVQYLRSLRGMTELYLGENSKPSFIQDKELSHLILKAAEGFLFVVGCERGRIFYVSKSVSKTLRYDQASLIGQNLFDFLHPKDVAKVKEQLSCDGSPREKPIDTKTSQVYSHPYTGRPRMHSGSRRSFFFRMKSCTVPVKEEQPCSSCSKKKDHRKFHTVHCTGYLRSWPLNVVGMEKESGGGKDSGPLTCLVAMGRLHPYIVPQKSGKINVRPAEFITRFAMNGKFVYVDQRATAILGYLPQELLGTSCYEYFHQDDHSSLTDKHKAVLQSKEKILTDSYKFRVKDGAFVTLKSEWFSFTNPWTKELEYIVSVNTLVLGRSETRLSLLHCGGSSQSSEDSFRQSCINVPGVSTGTVLGAGSIGTDIANEVLSLQRLHSSSPEDASPSEEVRDDCSVNGGNAYGPASTREPFAVSPSETEVLEAARQHQSTEPAHPHGPLPGDSAQLGFDVLCDSDSIDMAAFMNYLEAEGGLGDPGDFSDIQWAL
With B1, the binding entry in experiment [2], in experiment [3] and in experiment [1] was “binds” throughout.
